Binding data for one molecule are collected here from patent US20230220059A1 (CRISPR THERAPEUTICS, published 2023).

Chains of the proteins cited; added tags and fusions are not shown. Residues count along the entry.
UniProt Q02223, residues 1-54: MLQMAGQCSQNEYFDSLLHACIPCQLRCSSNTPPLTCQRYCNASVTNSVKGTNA

No constants are given. Whether binding was seen depends on the method and setting. Some entries that bind do so weakly or less than the wild type.

This assay addresses purified BCMA protein absorbed to a tissue slide (UniProt Q02223). In words: immunohistochemistry; purified BCMA absorbed to a tissue slide; antibody at 5.0 and 50.0 µg/mL.

B1: humanized mouse antibody from which the scFv portion of the CTX120 CAR was derived (antibody, V domains shown)
VH: QVQLVQSGAELKKPGASVKVSCKASGNTLTNYVIHWVRQAPGQRLEWMGYILPYNDLTKYSQKFQGRVTITRDKSASTAYMELSSLRSEDTAVYYCTRWDWDGFFDPWGQGTTVTVSS
VL: EIVMTQSPATLSVSPGERASISCRASQSLVHSNGNTHLHWYQQRPGQAPRLLIYSVSNRFSEVPARFSGSGSGTDFTLTISSVESEDFAVYYCSQTSHIPYTFGGGTKLEIK
As for B1, the binding result is listed as “binds”.
